# Earlier results in patent publication US20120093928A1, “ORAL METAXALONE COMPOSITIONS” (RANBAXY LABORATORIES LIMITED, priority 2007, published 2012).
# Conditions: oral, single 800 mg dosage
smiles,measurement,value
"Cc1cc(C)cc(OCC2CNC(=O)O2)c1 (centres unmarked) [metaxalone, 5-[(3,5-dimethyphenoxy)methyl]-2-oxazolidinone]",duration of action,4 to 6 h
same,onset of action,≤ 1 h
